{"source": "PubChem BioAssay AID1259405 (NCATS, 2018)", "aim": "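Silenced genes that increase secreted GFP made by CHO cells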 (primary screen)", "system": "Chinese hamster CHO-K1 ovary cells with stable secreted eGFP expression", "knock-down reagent": "single siRNA against mouse genes, 0.8 pmol siRNA per well (2 µl of 400 nM stock)", "timing": "3 days", "measured": "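Percent of the per-plate non-targeting control median for intracellular GFP per well by laser scanning cytometry and for cell viability by ATP luminescence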", "scale": "GFP, % of control: higher = more GFP per well, higher productivity; viability (ATP), % of control: higher = more viable cells (more ATP)", "active means": "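a knock-down is called active if GFP reaches 120% or more of non-targeting control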", "note": "Here is a random part of about 50,000 reagents. Of all reagents, about 4,000 (8%) are marked active. 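Mouse siRNA library applied to hamster cells; one well for each siRNA.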 The numbers tell different reagents against one gene apart."}
{"gene knocked down": "Dpcd", "reagent": 1, "GFP, % of control": 32.7, "viability (ATP), % of control": 43.5, "call": "inactive"}
{"gene knocked down": "Dpcd", "reagent": 2, "GFP, % of control": 80.8, "viability (ATP), % of control": 94.1, "call": "inactive"}
{"gene knocked down": "Dpcd", "reagent": 3, "GFP, % of control": 145, "viability (ATP), % of control": 148, "call": "active"}
{"gene knocked down": "Clec2m", "reagent": 1, "GFP, % of control": 92, "viability (ATP), % of control": 95.5, "call": "inactive"}
{"gene knocked down": "Clec2m", "reagent": 2, "GFP, % of control": 62.8, "viability (ATP), % of control": 70.4, "call": "inactive"}
{"gene knocked down": "Clec2m", "reagent": 3, "GFP, % of control": 38.1, "viability (ATP), % of control": 38.2, "call": "inactive"}
{"gene knocked down": "Ranbp6", "reagent": 1, "GFP, % of control": 66.9, "viability (ATP), % of control": 49.3, "call": "inactive"}
{"gene knocked down": "Ranbp6", "reagent": 2, "GFP, % of control": 65.1, "viability (ATP), % of control": 52.9, "call": "inactive"}
{"gene knocked down": "Ranbp6", "reagent": 3, "GFP, % of control": 75.9, "viability (ATP), % of control": 94.7, "call": "inactive"}
{"gene knocked down": "Smarca4", "reagent": 1, "GFP, % of control": 96.4, "viability (ATP), % of control": 94.8, "call": "inactive"}
{"gene knocked down": "Smarca4", "reagent": 2, "GFP, % of control": 82.2, "viability (ATP), % of control": 52.5, "call": "inactive"}
{"gene knocked down": "Smarca4", "reagent": 3, "GFP, % of control": 102, "viability (ATP), % of control": 78.5, "call": "inactive"}
{"gene knocked down": "Rnf25", "reagent": 1, "GFP, % of control": 104, "viability (ATP), % of control": 88.6, "call": "inactive"}
{"gene knocked down": "Rnf25", "reagent": 2, "GFP, % of control": 33.3, "viability (ATP), % of control": 33.5, "call": "inactive"}
{"gene knocked down": "Rnf25", "reagent": 3, "GFP, % of control": 62.8, "viability (ATP), % of control": 50.6, "call": "inactive"}
{"gene knocked down": "Ctif", "reagent": 1, "GFP, % of control": 76.2, "viability (ATP), % of control": 74.8, "call": "inactive"}
{"gene knocked down": "Ctif", "reagent": 2, "GFP, % of control": 73.1, "viability (ATP), % of control": 103, "call": "inactive"}
{"gene knocked down": "Ctif", "reagent": 3, "GFP, % of control": 84.5, "viability (ATP), % of control": 70.4, "call": "inactive"}
{"gene knocked down": "Mrpl21", "reagent": 1, "GFP, % of control": 58.6, "viability (ATP), % of control": 74.1, "call": "inactive"}
{"gene knocked down": "Mrpl21", "reagent": 2, "GFP, % of control": 90.5, "viability (ATP), % of control": 100, "call": "inactive"}
{"gene knocked down": "Mrpl21", "reagent": 3, "GFP, % of control": 89.9, "viability (ATP), % of control": 93.1, "call": "inactive"}
{"gene knocked down": "Zfyve26", "reagent": 1, "GFP, % of control": 109, "viability (ATP), % of control": 70.3, "call": "inactive"}
{"gene knocked down": "Zfyve26", "reagent": 2, "GFP, % of control": 104, "viability (ATP), % of control": 53.8, "call": "inactive"}
{"gene knocked down": "Zfyve26", "reagent": 3, "GFP, % of control": 55.3, "viability (ATP), % of control": 63.5, "call": "inactive"}
{"gene knocked down": "Srgn", "reagent": 1, "GFP, % of control": 107, "viability (ATP), % of control": 108, "call": "inactive"}
{"gene knocked down": "Srgn", "reagent": 2, "GFP, % of control": 79.6, "viability (ATP), % of control": 62.2, "call": "inactive"}
{"gene knocked down": "Srgn", "reagent": 3, "GFP, % of control": 50.9, "viability (ATP), % of control": 63.2, "call": "inactive"}

Reformatted: entries from further up
| gene knocked down | reagent | GFP, % of control | viability (ATP), % of control | call |
| --- | --- | --- | --- | --- |
| Clec2m | 1 | 92 | 95.5 | inactive |
| Clec2m | 2 | 62.8 | 70.4 | inactive |
